One molecule from patent publication US20240027467A1 can be followed below.

By UniProt entry, the sequences of proteins in these tests, tags left out. Residues count along the entry.
UniProt O43426, residues 528-873: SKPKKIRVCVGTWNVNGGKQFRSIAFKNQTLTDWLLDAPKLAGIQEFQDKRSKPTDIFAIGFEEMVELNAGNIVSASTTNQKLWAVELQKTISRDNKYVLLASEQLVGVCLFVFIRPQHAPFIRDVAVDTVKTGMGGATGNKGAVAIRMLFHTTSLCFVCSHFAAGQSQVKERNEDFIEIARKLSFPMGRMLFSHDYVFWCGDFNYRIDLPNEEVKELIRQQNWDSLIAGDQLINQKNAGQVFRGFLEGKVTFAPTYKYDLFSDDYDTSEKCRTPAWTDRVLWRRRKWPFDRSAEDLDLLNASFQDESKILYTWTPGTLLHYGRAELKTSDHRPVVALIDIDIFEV

The target of experiment [1] is recombinant human Synaptojanin1 (528-873) (human) (UniProt O43426). Briefly: displacement of Synaptojanin from immobilised CA13016 (NANEX column) by CA13080; A280 and SDS-PAGE.
The target is the same in experiment [2]. Nature of the experiment: NANEX column, elution with CA13080.

These are yes or no findings as the source states them, for the method shown. Some binding calls cover weakened binding; strength is not graded here. Tags and fused reporters may be left off the sequences shown.

B1: CA13080 Synaptojanin-specific Nb (Stripper; C-term. 6xHis+EPEA) (VHH)
VHH: QVQLVESGGGLVQAGGSLRLSCAASRFMFDDYIIGWFRQAPGKEREGVSCISNSDGSTNYADSVKGRFTISSDNARNAVYLQMNSLKPEDTAVYYCAAQRAFMTRLCLNIYYAHWGQGTQVTVSS
Consider B1, for which the binding result in experiment [1] and in experiment [2] was “binds” in each case.
